Some of these results come from one statement about several compounds together.
Target: PRR (Mus musculus, UniProt Q9CYN9)
Test: Prorenin-induced pressor response with ICV PRR antagonist peptides in C57BI/6J mice
Assay type: in vivo
Design: from tissue; host or cells: brain of living C57Bl/6J mice (ICV infusion)
Conditions: ICV peptide 45 ng/ul
Method: C57BI/6J mice (N=5/group) were each implanted with a telemetric probe for BP recording and an intracerebroventricular (ICV) cannula for infusion of mouse prorenin (100 ng/ul), PR10, or PR20 (45 ng/ul) at 0.3 ul/minute for 10 minutes. Mouse prorenin infusion increased the BP (mmHg) in WT mice (ΔMAP: 31.3±1.1); however, the prorenin-induced pressor response was abolished in either PR10 (ΔMAP: 16.9±4.4 vs. prorenin) or PR20 (ΔMAP: 12.7±0.5 vs. prorenin) infused mice.

Amino acid sequences for entries named in this document (tags omitted). Residues count along the entry.
UniProt Q9CYN9, 18-350: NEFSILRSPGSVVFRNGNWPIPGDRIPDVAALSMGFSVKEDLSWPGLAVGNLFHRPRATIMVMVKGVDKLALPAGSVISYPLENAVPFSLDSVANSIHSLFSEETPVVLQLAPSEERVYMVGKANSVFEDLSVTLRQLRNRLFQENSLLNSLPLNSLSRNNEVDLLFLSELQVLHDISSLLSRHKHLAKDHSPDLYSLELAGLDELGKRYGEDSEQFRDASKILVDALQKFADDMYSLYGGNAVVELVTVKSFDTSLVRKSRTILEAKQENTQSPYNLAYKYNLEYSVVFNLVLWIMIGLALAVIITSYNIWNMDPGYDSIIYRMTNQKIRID

In the case of IFDNIISQGVLKEDVF (PRR antagonist PR10), the “reduction in pressor response induced by prorenin” value is reported as 40-50%.

With “LPTDTTTFKRIFLKRMPSI (PRR antagonist) [PR20]” the “reduction in pressor response induced by prorenin” value was 40-50%.

From patent US9586995B2, “Compositions and methods of use for (pro)renin receptor” (University of Utah, priority 2012, dated 2017)
